Record: PubChem BioAssay AID743454 (Peter MacCallum Cancer Centre, 2014)
Purpose: 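Genes whose loss kills vorinostat-resistant colon cancer cells under vorinostat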 (primary screen). Cells: human HCT116-VR colon cancer cells, selected for vorinostat resistance. Knock-down reagent: siRNA pool against human genes, 40 nM siRNA pool. Timing: vorinostat for 24 h, read-out about 72 h after transfection. Conditions: vorinostat at 2.5 µM final. Measurement: 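Cell viability by CellTiter-Fluor and caspase 3/7 activity by luminescence, each scaled to mock wells per plate, duplicates averaged, then robust z-scored over all plates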. Scale: viability robust z-score: higher = more viable cells than screen typical; caspase robust z-score: higher = more caspase 3/7 activity than screen typical. Call rule: 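Hits are knock-downs in viability class RV1/RV2 or caspase class CA1/CA2, excluding ones that killed cells in the no-drug cell-count arm; hits then retested with single siRNAs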.
The whole screen tested about 18,000 reagents; this is a random part of them. Over the whole deposit, 450 (2.5%) are marked active. 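Single biological run; no consistent viability z cut-off exists, so the class columns, not z-scores, define the calls.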 Reagent sequences are not shown.

gene	viability hit class	caspase hit class	viability robust z-score	caspase robust z-score	outcome
ZNF793	no change	no change	0.48	0.08	inactive
MARCHF5	no change	no change	-2.04	4.88	inactive
CNTN1	no change	no change	1	-0.18	inactive
GIGYF2	no change	no change	-1.24	0.1	inactive
PTAFR	no change	no change	-0.75	-0.22	inactive
SYDE1	no change	no change	0.31	-0.02	inactive
DAB2IP	no change	no change	0	1.82	inactive
LCN8	no change	no change	-1.46	1.25	inactive
CACNG6	no change	no change	-1.7	-0.05	inactive
FUNDC2	no change	no change	-0.18	-0.88	inactive
CMTM3	no change	no change	0.64	0.06	inactive
ZNF223	no change	no change	-0.62	3.17	inactive
TMEM120A	no change	no change	1.03	0.51	inactive
SYT12	no change	no change	1.34	-0.3	inactive
PKNOX1	no change	no change	0.6	-0.36	inactive
CIP2A	no change	no change	-0.15	-0.06	inactive
PARP10	no change	no change	0.62	-0.52	inactive
CHCHD6	no change	no change	0.23	-0.34	inactive
RIMS4	no change	no change	-0.88	1.74	inactive
NAV3	no change	no change	0.55	-0.55	inactive
MX2	no change	no change	-3.04	1.46	inactive
BEX4	no change	no change	0.13	-0.01	inactive
GCSAML	no change	no change	0.24	-0.32	inactive
OR6C65	no change	no change	-0.94	1.57	inactive
MCM3	no change	no change	-2.36	1.98	inactive
SYTL5	no change	no change	-0.46	1.32	inactive
PPBP	no change	no change	1.22	-0.98	inactive
PYHIN1	no change	no change	-0.5	-0.18	inactive
AMELY	no change	no change	1.3	-0.28	inactive
TNIP2	no change	no change	-0.36	1.56	inactive
MYCT1	no change	no change	-0.86	4.65	inactive
DACT3	no change	no change	-0.55	-0.17	inactive
FA2H	no change	no change	0.5	-0.29	inactive
OCLM (retired record)	no change	no change	0.45	-0.3	inactive
OGFOD2	no change	no change	0.3	0.09	inactive
TOMM22	no change	no change	0.55	-0.04	inactive
PRKG2	no change	no change	0.12	-0.4	inactive
PCYT2	no change	no change	1.12	-0.22	inactive
RAET1E	no change	no change	0.18	-0.36	inactive
BBS4	no change	no change	0.84	-0.06	inactive
OR8B2	no change	no change	-0.62	-0.49	inactive
TNFAIP3	no change	no change	-0.69	-0.2	inactive
UGT2B28	no change	no change	-0.43	-0.74	inactive
UCHL1	no change	no change	1.31	2.24	inactive
SERTM1	no change	no change	-0.48	0.9	inactive
FAM131B	no change	no change	0.66	-0.63	inactive
GJB6	no change	no change	-1.56	1.54	inactive
TAX1BP1	no change	no change	0.18	-1.31	inactive
SERINC3	no change	no change	-0.15	-0.55	inactive
METTL21C	no change	no change	0	2.34	inactive
PPP2R2C	no change	no change	1.62	-0.08	inactive
TMED3	no change	no change	-3.15	2.97	inactive
KRT86	no change	no change	0.28	1.47	inactive
TRAFD1	no change	no change	1.48	0.8	inactive
ZCCHC14	no change	no change	0.6	-0.84	inactive
USP45	RV2 (reduced viability)	no change	-3.21	3.16	active
AMY2B	no change	no change	-0.45	-0.8	inactive

Single entries from the entries so far:
For “outcome”, CIP2A reads inactive
Under “caspase robust z-score”, CMTM3 has 0.06
MYCT1, caspase hit class: no change
Value for TOMM22 in “caspase robust z-score”: -0.04
For “viability hit class”, PTAFR has no change
TNIP2, caspase hit class → no change
